No constants are given. Whether binding was seen depends on the method and setting. Binding calls can cover weak binding; strength is not graded here. For some of these results: Binding seen in cells or lysates may run through a third protein.
Legend:
[1] = target: His-tagged TEX264^WT without its hydrophobic N-terminus (ΔNT TEX264) (human) (UniProt Q9Y6I9); assay: pull-down; TEX264^WT coupled to HisPur Ni-NTA Magnetic Beads, incubated 2 h with recombinant TOP1; 137 mM NaCl, 20 mM Tris–HCl pH 7.0; both purified
[2] = target: recombinant p97-S tag (human) (UniProt P55072); assay: pull-down; p97-S tag coupled to S-protein Agarose, incubated 2 h with TEX264^WT, TEX264^ΔSHP and/or recombinant TOP1; 137 mM NaCl, 20 mM Tris–HCl pH 7.0, 0.5% Triton X-100; 4 °C coupling; both purified
[3] = target: TEX264^SIM1*-FLAG (SIM1-mutated variant) (UniProt Q9Y6I9); assay: co-IP; anti-FLAG M2 agarose on lysates of HEK293 or ΔTEX264 HEK293 cells expressing FLAG-tagged TEX264 variants; Benzonase, ethidium bromide; cells treated with DMSO or CPT (25 nM, 1 h)
[4] = target: TEX264^SIM2*-FLAG (SIM2-mutated variant) (UniProt Q9Y6I9); assay: as above

The chains behind the UniProt entries cited, without tags or fusion partners. Where a name states a change or a piece, a line headed by the entry shows the natural chain unless it says otherwise.
UniProt Q9Y6I9: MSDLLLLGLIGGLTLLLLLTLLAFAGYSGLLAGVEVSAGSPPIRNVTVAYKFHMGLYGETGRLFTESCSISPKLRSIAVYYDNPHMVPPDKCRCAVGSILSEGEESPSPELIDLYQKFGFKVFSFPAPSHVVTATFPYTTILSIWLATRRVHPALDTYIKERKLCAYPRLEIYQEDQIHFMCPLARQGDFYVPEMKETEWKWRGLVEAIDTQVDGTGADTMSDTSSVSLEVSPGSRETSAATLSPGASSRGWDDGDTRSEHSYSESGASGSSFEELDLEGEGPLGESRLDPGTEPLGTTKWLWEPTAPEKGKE
UniProt P11387: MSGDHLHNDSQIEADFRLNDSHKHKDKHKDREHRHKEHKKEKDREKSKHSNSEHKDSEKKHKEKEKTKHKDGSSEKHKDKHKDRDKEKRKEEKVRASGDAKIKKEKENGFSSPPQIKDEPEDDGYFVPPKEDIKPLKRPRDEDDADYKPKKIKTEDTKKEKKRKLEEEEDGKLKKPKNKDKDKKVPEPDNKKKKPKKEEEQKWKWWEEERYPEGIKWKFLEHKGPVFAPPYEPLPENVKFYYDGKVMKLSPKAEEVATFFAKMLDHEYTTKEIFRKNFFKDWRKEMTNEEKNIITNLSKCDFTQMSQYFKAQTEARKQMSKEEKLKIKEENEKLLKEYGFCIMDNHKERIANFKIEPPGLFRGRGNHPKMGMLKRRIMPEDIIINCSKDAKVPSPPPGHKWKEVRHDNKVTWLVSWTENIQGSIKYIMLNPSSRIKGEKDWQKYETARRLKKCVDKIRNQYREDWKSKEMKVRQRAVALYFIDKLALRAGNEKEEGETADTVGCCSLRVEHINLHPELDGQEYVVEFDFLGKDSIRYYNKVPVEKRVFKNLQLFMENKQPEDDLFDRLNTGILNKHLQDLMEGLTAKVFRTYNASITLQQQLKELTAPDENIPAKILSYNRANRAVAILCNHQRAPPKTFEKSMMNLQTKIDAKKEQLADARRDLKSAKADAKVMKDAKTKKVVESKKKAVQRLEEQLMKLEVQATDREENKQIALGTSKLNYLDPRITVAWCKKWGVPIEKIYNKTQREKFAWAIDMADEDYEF

For “recombinant TOP1 (from UniProt P11387 1-765)”, the binding [1] was “binds”.
For “His-tagged TEX264^WT without its hydrophobic N-terminus (ΔNT TEX264) (from UniProt Q9Y6I9) (domain or fragment)”, the binding [2] was “binds”.
“Modified species of TOP1 (from UniProt P11387 1-765)” was tested, and the binding [3] was “binds” and the binding [4] was “binds”.

Source: publication PMC7062751
